Experimental data published in the supplement of paper PMC3334620.
In all, about 33,000 sequences were measured (“E-score (-0.5 to 0.5)”: median about -0.0059, highest 2% from about 0.26 on). Some of the results follow.

Molecular target: T1, Cin5 (UniProt P40917)
T1 sequence: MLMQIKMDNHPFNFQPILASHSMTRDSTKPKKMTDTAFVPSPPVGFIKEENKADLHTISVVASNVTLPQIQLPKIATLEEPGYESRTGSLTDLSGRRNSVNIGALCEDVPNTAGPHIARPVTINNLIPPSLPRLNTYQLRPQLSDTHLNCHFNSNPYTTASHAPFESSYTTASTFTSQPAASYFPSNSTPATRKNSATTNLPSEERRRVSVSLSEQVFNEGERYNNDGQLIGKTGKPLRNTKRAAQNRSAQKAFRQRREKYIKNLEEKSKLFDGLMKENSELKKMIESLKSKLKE
Assay: PBM E-score (8-mer binding enrichment) (E-score (-0.5 to 0.5)); higher = stronger / more preferred TF binding
Conditions: protein concentration: 100 nM; construct: GST-full length
How it was run: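 E-scores (a modified Wilcoxon-Mann-Whitney statistic) were assigned by the Universal PBM Analysis Suite to every ungapped eight-base word pooled with its reverse complement. The input came from universal all-10-mer Agilent arrays made double-stranded by primer extension and probed with GST-tagged yeast transcription factors at about 100-200 nM. Fluorescent anti-GST detected bound protein, and masliner normalised the scans.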

Sequence	PBM E-score
TCCACAAA	0.058
ACTCAACT	0.0921
AATCCTAA	0.0229
GATTTTCA	0.0254
AGACAGTA	0.105
AGGGGTAG	-0.0974
GAAAGCTA	-0.0298
AACGTCTG	0.0854
ACCCTACA	0.109
CATTCGAC	0.0347
CCGCAGGC	-0.106
AATTGGGC	0.0334
CCTAGTGC	-0.0298
AAGCAGAA	0.261
ACCCCTCC	-0.104
AAGCCACT	-0.133
CTAGCAAA	0.0262
AAGGAGAT	0.0365
ACGAGACT	-0.132
ATTAGGGG	-0.0343
CGCCCCCA	-0.325
ATAGCATA	0.123
GCTACTAA	-0.0132
AACGCGGA	0.0542
GGAGCCAA	-0.0883

Sequence	PBM E-score
GCCGGGGA	-0.142
ACCCGAAC	-0.0614
AGGGGTTG	0.0241
ATGGTACA	0.1
TGCGACAA	0.00345
GAAGAAGC	-0.123
CCGCCAGG	-0.104
CAGTGAGC	-0.0152
TCCTCCCA	-0.139
AGGAAGGG	-0.311
AATCTTGG	0.122
CGGCCGTA	-0.0263
CTCTAGCA	-0.161
AAAAAAAA	0.215
ACTGTAGC	-0.0588
TAGACCCA	0.102
AGGTACAC	-0.0546
CACCCACA	0.047
CCACGGGA	-0.116
GATTATCC	0.0776
CAGCGGGG	-0.0419
GATACAAA	0.173
CATGGTAG	-0.0838
AAAGACGT	0.109
AAAACGGA	0.0411

Sequence	PBM E-score
CGTATCAC	0.0777
CATTGTAC	-0.0235
GTTTCCTA	0.089
ACAGCAAC	0.107
ATCCTAAG	0.0186
ACTTCAGC	-0.104
GGATTACC	0.131
TGTGACAA	-0.0449
GATAGGAA	0.0166
CTTACCCA	0.0832
TTCCAGAA	0.0375
CTGCAATA	0.135
GAGATACA	0.199
AGGATCAG	-0.192
AGAACGCT	-0.213
CCAATACG	-0.144
GACACGGA	-0.0636
GACCTACA	0.0137
AAGAAATT	0.0841
AAGCGTGG	-0.0866
GCTCTTAC	0.021
CCGCGGTA	0.131
CAACGAGA	0.108
TGCTCAAA	-0.0568
GAGGGTCA	-0.274

Sequence	PBM E-score
GTACATGA	0.06
TCTAGTCA	-0.0366
CTGGCATA	0.0375
CAACGAGG	0.0572
CATAAGCC	0.245
CACCACGC	-0.254
CGTATGCA	0.162
GAAAGCTC	-0.102
CAGCCAGA	-0.128
AGAGAGGC	-0.288
AAAAGAGT	-0.0541
AATTGTCA	0.137
CGGGGCCC	0.0644
CAATATTG	0.205
AGATTCAA	0.0954
AACATGCT	0.0355
GTAACGAA	0.0747
TAGACAGA	0.0775
ACCGATTG	-0.0313
CCCATACG	-0.0527
AAGCATAG	0.015
ACAGTTGG	0.016
GATGGAAC	0.0146
AGAGTTAC	-0.0307
CATTATAA	0.0881

Sequence	PBM E-score
GCCTAGTA	-0.00713
AATGTTTG	0.0818
AATGCTCT	-0.0108
CCCTCCTA	-0.18
GCAAATAC	0.021
GACTGAGC	-0.252
CATCATAC	0.0705
GGGGTCGA	-0.091
ATTATCGA	0.105
ACGAAGCA	0.077
ATATCGAG	0.00944
GAGGTCAA	0.025
GCGGTCCA	-0.295
AGCGTAGG	-0.0398
GAAGAGGC	-0.146
ATCCAACC	0.0673
CGTCCGGC	-0.0355
AAACCGGT	-0.0834
CCGGTTCA	-0.18
GGCGTGAC	-0.163
GATGCCGA	0.0556
GCTGGAGA	-0.241
AACATCCT	0.0581
GCCGGGTA	-0.235
AGACGGCT	-0.178

Sequence	PBM E-score
GTATAACA	0.126
ACACTTGC	0.125
GCTGAGAC	0.0196
AGGCCTAT	-0.182
GCTAATGA	0.021
CGAGCTAA	0.0146
GATGCAAA	0.0951
CCTTAGAA	-0.0933
GTTCACAA	0.00137
CTTGATCC	0.00298
AAATGGTA	0.268
AAAATGCC	0.0011
CTAGCATA	-0.039
GATAACTA	0.214
CTGAGCGC	-0.19
AAGGAGTC	-0.275
AACCCGTA	0.0145
CGGAAGGA	-0.164
ACTGATAC	-0.00272
AAATCTGC	0.043
GCTCGCCC	-0.128
ATTGACAC	-0.0732
ATGGTTCA	0.00143
CAGATAGC	-0.0791
GGCCGGGA	-0.1

Sequence	PBM E-score
TACGTCTA	0.0247
AGGTCGTC	-0.0992
AAGTACTT	0.00649
AATCACAT	0.19
CGACACAA	-0.0261
GCTGCGAA	0.0387
ACACAGCC	-0.0402
GGTTCTTA	0.0912
AGATCACT	0.112
CAGTTGAG	-0.0998
GCCTCGGA	-0.162
GACTCTCA	0.0568
ACACACAT	0.0722
ACATAAGC	0.437
GTGCACCA	-0.032
ATACTCAG	0.258
AGAGACCT	-0.142
CCATGATA	0.0295
TCCCTCAA	-0.0793
GCTAGGAC	-0.287
ACGTGTCG	-0.106
GATTCGGA	0.196
